Source: PubChem BioAssay AID1508600 (Functional Genomics Laboratory (NCATS/FGL), 2020)
The campaign covered roughly 53,000 sequences. About 3,700 (7%) were called active.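 The calls were made as follows: active = gene knockdowns whose robust z-score for IL-1 alpha signal is at least 2 or at most -2, so actives lie on both sides; inactive = the rest.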 The list shows a part of the results.

Assay: Components of the Cytosolic LPS Sensing Pathway: Gene Identification via Genome-wide siRNA Screen;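 also: robust z of the log signal after scaling to non-targeting control siRNA wells of the plate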
Settings: RAW264.7 macrophages, IL-1a HTRF, actives lie on both sides, screened at 100 nM (by protocol), cells primed 5 h with Pam3CSK4 first
Method in brief: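 IL-1a HTRF of supernatants after 24 hour LipidA transfection of Pam3CSK4-primed (5 hours) RAW264.7 cells, 48h post-siRNA transfection (100 nM). Scores: percent of plate negative-control median, then log-based robust z-score.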

| Sequence | z-score |
| --- | --- |
| CGGGAUAGUAACUUCUUAATT against Mettl21a | inactive: 0.801 |
| GGUAGAACAUGAAGUCUCUTT against St6galnac4 | inactive: -1.45 |
| CGCAGUCCUGUCAGACUUUTT against Otud7a | inactive: 1.08 |
| GGCUUUUUUGUCUUAGGCUTT against A530013C23Rik | inactive: 0.00244 |
| GAACUGGAAUGCCUGAUGGTT against Gm10037 | inactive: -0.642 |
| CGUAAAUUCACCAAGGAGCTT against Slc19a1 | inactive: -0.805 |
| CGUUCUUCAUGAAACAUUCTT against Ryr3 | inactive: 0.8 |
| GGCCUUAACCUGAUAGUUGTT against Nt5m | inactive: 0.186 |
| GUGACAGUGGCAUCAGCAUTT against Smim14 | inactive: 0.876 |
| GCACUCGAAUUUCUUUACUTT against Slc23a2 | active: 2.22 |
| GGACAGUUCUAAAAUUCCCTT against Olfr780 | inactive: -1.73 |
| CCUGACCGUUAACAGCUGUTT against Aamp | inactive: 0.34 |
| GGGUCAGAAAAGUCUGUCATT against Vangl1 | inactive: -0.271 |
| CCACUCAAGCGGUAAGGAUTT against Slc22a1 | active: 4.16 |
| GGAGAGAAGUGACAACGAATT against Adamts8 | inactive: -0.862 |
| GGGCAUUGACCACAAAAAGTT against Ubiad1 | inactive: -1.03 |
| GGAUAGAAAACAGUAUCUGTT against Fggy | inactive: 1.07 |
| CCUCUACUUAAUGUGCAACTT against Npc1l1 | inactive: 1.08 |
| GCUAAGAAGAGGAUUCCAATT against Spag1 | inactive: -0.579 |
| GUCACAAGCUGUCCAACAATT against Ndufa7 | active: -2.25 |
| GGACCUUCCUACGAGAAAATT against Tm2d2 | inactive: 0.0894 |
| GGACAGCAAGACCAACCUATT against Elavl2 | inactive: -1.87 |

| Sequence | z-score |
| --- | --- |
| GGUGGUCUGAUCGUAGACATT against Lrrc61 | inactive: 0.672 |
| GUUUUCAGAGCUCUGCAUUTT against Fam98b | inactive: 0.812 |
| GGAGUGAUUAACCUAACUCTT against Crip3 | inactive: -1.3 |
| GGAACAUCACCCUUGCCAATT against Scara5 | inactive: -0.89 |
| CGUAUAAUAACUCCUUAUCTT against Hoxa1 | active: 2.17 |
| GCAAUACUUAUCCAUUGCGTT against Msx3 | inactive: -0.42 |
| GGGUAAAUCCUUCAUUCUGTT against Atl3 | inactive: 1.49 |
| CUUUCCUUCACUGAUGUCATT against Olfr666 | inactive: -1.42 |
| GCUAAUGCUAGUGAAAUUCTT against Rbm12b1 | inactive: 0.169 |
| UCACCAUCUUGAAGAUUCGTT against Olfr486 | inactive: -0.792 |
| GCAAGAGUCUGCUACGACATT against Opn1sw | inactive: 0.629 |
| CCAGAACUGUGAGUGGAUUTT against Nrp2 | inactive: -0.644 |
| GCGAGAGCUUCUUAACUGUTT against Ssh2 | inactive: 1.54 |
| GCAGACCUAACUAAGCUUUTT against Vmn2r30 | inactive: -0.504 |
| GCUGACCGGCAUUUACCAUTT against Mcm2 | active: 2.78 |
| GCACUACAUUGUGGCUGUCTT against Itpr3 | active: -2.57 |
| CGCCGCACAGUUAAUGCUUTT against Mettl17 | inactive: 0.973 |
| GGCUGUGGUAUUUUUGGUUTT against Vopp1 | active: 2.15 |
| GGUGUUGAGUUCAAGUCUATT against Dennd11 | inactive: -0.468 |
| GCGAUUCUGUUGUUAGCUUTT against Rln1 | inactive: 0.134 |
| GGAAGCUUAAUUGUGCACATT against Zfp637 | inactive: 0.184 |
| CCAGGACCUUAUCAGGUUUTT against Idh2 | active: 2.44 |

| Sequence | z-score |
| --- | --- |
| GCUUGAUGGAAUCUUCUAGTT against 1700030K09Rik | inactive: 0.508 |
| GGAUGAAGUGCUAAUAGGATT against Fam3b | inactive: 0.309 |
| GGGCAUGGACAAAAAGAAGTT against Prpf3 | inactive: -1.78 |
| GGCAUAGCCAUGAUGACAUTT against Denn2b | inactive: -1.3 |
| GGAGUACAGCAUCUCAGCATT against Cacng1 | active: -2.17 |
| GGCUGCACACAAUAUGAACTT against Mrm2 | inactive: 0.134 |
| GCCGAAUAUUAAAUGGUUUTT against Gnl2 | inactive: 0.93 |
| GGUGUUAGCCUAGAAAAACTT against Fbxo43 | inactive: -0.646 |
| GGACCGUUUACAACUUCUATT against Spast | inactive: 0.872 |
| CCACAUGAUUCUGACAUAUTT against A830019P07Rik | inactive: -1.06 |
| GGUCUAUUUGACCUCUUAATT against Bcl2l13 | active: 2.22 |
| CGGAUUGAUUUCUGAUGCGTT against Krt77 | inactive: -0.561 |
| GCGGUGCUUAGAGCAACUGTT against Mxd3 | inactive: -0.531 |
| GGAAAUCCGCUUCACCAUCTT against Efnb1 | inactive: 1.28 |
| GCAUGUUGCAUCACAGGGATT against Zfp106 | inactive: -0.355 |
| CCAGGACCUAGAGUACCUUTT against Osgin1 | inactive: 0.0607 |
| GGAAUUCGUAAUCACGCAATT against Vmn1r62 | inactive: -1.23 |
| UCACAAGUACAGAUCUGAATT against Vmn1r209 | inactive: -0.188 |
| GCUUACAAUGAAUGAUGAUTT against Psme4 | inactive: -0.061 |
| GAAAAAAUGCCAGCUGUGGTT against Sec61b | inactive: 0.379 |
| GCUAAUCCGGGCAAAAUCGTT against Gbp3 | inactive: 0.656 |
| GGAAAAGCAUAAAGAAAAGTT against Ralbp1 | inactive: 1.33 |

| Sequence | z-score |
| --- | --- |
| GGAAAAGCUUUUGUUCCCATT against Tfb1m | active: 2.58 |
| GGUAACUCUCCUUAGCCAGTT against Klk10 | inactive: -0.0493 |
| GGUCCCUUGAUGUCGAUUATT against Stt3b | inactive: -1.15 |
| GGUCACUCCGAUGUUAUUUTT against G6pc | inactive: -1.47 |
| GCCAUGAUGACUAACCUUATT against Dbpht2 | inactive: -1.27 |
| GGAUAGCAAUUGUCUUUCATT against Zfp947 | inactive: -0.142 |
| CCAAAUUCAUCAGAUCUUCTT against Olfr424 | inactive: -0.987 |
| CCUGUGGUGCAAACGGUUGTT against Osm | inactive: -0.254 |
| GGAUAACAAACCUGAAUCATT against Xkr5 | inactive: -0.797 |
| GACAAAUAGUGCAGGAGGATT against Lce1i | inactive: -0.537 |
| GGAAGAAGACAUGCUCACUTT against Pcdhb8 | inactive: 1.07 |
| GGUGCUACUCCAGAUUGACTT against Tbc1d13 | inactive: 0.63 |
| GGACGGCAAAUUUGGUUUCTT against Mmp9 | inactive: 1.28 |
| GGACAAUGACCAGUUGAACTT against Prrx1 | inactive: 0.916 |
| CCCUUGUUGUUUAUCCUCATT against Ly6f | inactive: -1.06 |
| GGAAGGUGUCAAUAAAGAUTT against Lypd3 | inactive: 0.0184 |
| GGAGUUUGUGUUGUCAGUGTT against Kcng3 | inactive: -0.857 |
| GCAGAAAUGUCCAUCCAAATT against Sprr2k | active: 2.36 |
| GGUUUGUUUUUGUUCGUUUTT against Cytip | inactive: -0.067 |
| CCCUGAUUGGACUGAACUCTT against Olfr145 | inactive: 1.49 |
| GGACCAAAAGAAAGUAGAATT against Tbc1d9b | inactive: 1.44 |
| CCUGAGACAUACUUAAUGUTT against Anapc10 | inactive: 0.747 |

Some of the entries above in another layout.
Sequence | z-score
GGAUAGCAAUUGUCUUUCATT against Zfp947 | inactive: -0.142
GGUGCUACUCCAGAUUGACTT against Tbc1d13 | inactive: 0.63
CCUGAGACAUACUUAAUGUTT against Anapc10 | inactive: 0.747

An excerpt from further up, as a working copy:

| Sequence | z-score |
| --- | --- |
| GGCCUUAACCUGAUAGUUGTT against Nt5m | inactive: 0.186 |
| GUGACAGUGGCAUCAGCAUTT against Smim14 | inactive: 0.876 |
| GCACUCGAAUUUCUUUACUTT against Slc23a2 | active: 2.22 |
| GGACAGUUCUAAAAUUCCCTT against Olfr780 | inactive: -1.73 |
| CCUGACCGUUAACAGCUGUTT against Aamp | inactive: 0.34 |
| GGGUCAGAAAAGUCUGUCATT against Vangl1 | inactive: -0.271 |

The list continues.

| Sequence | z-score |
| --- | --- |
| GCUGCAUUGGUUGAAUGUGTT against Slc22a1 | inactive: -0.141 |
| GCAUAUAUCUGUGGAGUGUTT against Olfr1502 | inactive: -1.34 |
| CCACCCUUGGUAAAAAUGUTT against Olfr1006 | inactive: -1.63 |
| GGAUCUUUGCUACAAAAACTT against Fhl5 | inactive: 0.48 |
| GGAUUAGAGAAAUAGGGCUTT against Apol10a | active: -2.09 |
| GGAUCAGAGAACAGAGUCUTT against Alms1 | inactive: -1.79 |
| GGUAAUGUGGAACACAGCATT against Gsr | inactive: -0.831 |
| GGGUGAAAAGCAUUUCUGUTT against Actrt3 | inactive: 0.583 |
| GGGAUUCAGAACUUAAAGUTT against Vmn1r236 | inactive: 0.475 |
| GUGGCUGACAAGUUUAUCATT against Cyp2c66 | inactive: -0.132 |
| GGAGGAACUCCUAAAGAAGTT against Galntl5 | inactive: -0.511 |
| GCCAUCUCUAUGUUGUUGATT against Smtnl2 | inactive: -0.108 |
| CCCAGAGAUAAAGACGGGCTT against B4galt1 | inactive: -0.325 |
| GCUACCAUGCCCUAUGUAGTT against Slc6a3 | inactive: -0.694 |
| GGUUCAUUUAUACUUAACCTT against Tgif2lx1 | inactive: -0.854 |
| GAUGUGUUAACUACACCGATT against Pyy | inactive: 0.983 |
| GGACCAUGGCAUUAAACUGTT against S1pr1 | inactive: -0.515 |
| GCACCUCUCCCUACGAUUATT against Cxcr3 | inactive: 0.142 |
| GGCUUUGAUUAUGUUCCCATT against Fcer2a | inactive: -0.188 |
